Our source for the binding values is paper PMC9822926.

Sequences of proteins named here, by UniProt entry; tags and fusion partners are left off.
UniProt P51148: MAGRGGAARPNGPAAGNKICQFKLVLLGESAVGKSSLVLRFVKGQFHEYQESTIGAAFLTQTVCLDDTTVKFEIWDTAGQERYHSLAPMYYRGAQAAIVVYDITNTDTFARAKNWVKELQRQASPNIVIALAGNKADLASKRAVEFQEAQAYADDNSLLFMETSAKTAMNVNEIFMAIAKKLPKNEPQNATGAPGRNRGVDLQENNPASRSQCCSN

These are yes or no findings as the source states them, for the method shown. In cells and extracts the contact can be indirect. Some binding calls cover weakened binding; strength is not graded here.

The target in this assay is FLAG-RAB5C overexpressed in Scr and Mfn1KD C2C12 myoblasts (UniProt P51148). Kind of assay: co-IP; anti-FLAG magnetic beads O/N at 4 °C with lysate of stable Scr or Mfn1KD C2C12 myoblasts overexpressing FLAG-RAB5C; Tris HCl 50 mM, NaCl 150 mM, EDTA 5 mM, 1% digitonin; washes 0.1% digitonin; eluted with FLAG peptide; immunoblot; more Mfn2 in the IP of Mfn1KD cells.

B1: Mfn2 (endogenous, C2C12 myoblasts) (protein, UniProt Q80U63 1-757)
chain: MSLLFSRCNSIVTVKKDKRHMAEVNASPLKHFVTAKKKINGIFEQLGAYIQESASFLEDTHRNTELDPVTTEEQVLDVKGYLSKVRGISEVLARRHMKVAFFGRTSNGKSTVINAMLWDKVLPSGIGHTTNCFLRVGGTDGHEAFLLTEGSEEKKSVKTVNQLAHALHQDEQLHAGSMVSVMWPNSKCPLLKDDLVLMDSPGIDVTTELDSWIDKFCLDADVFVLVANSESTLMQTEKQFFHKVSERLSRPNIFILNNRWDASASEPEYMEEVRRQHMERCTSFLVDELGVVDRAQAGDRIFFVSAKEVLSARVQKAQGMPEGGGALAEGFQVRMFEFQNFERQFEECISQSAVKTKFEQHTVRAKQIAEAVRLIMDSLHIAAQEQRVYCLEMREERQDRLRFIDKQLELLAQDYKLRIKQITEEVERQVSTAMAEEIRRLSVLVDEYQMDFHPSPVVLKVYKNELHRHIEEGLGRNLSDRCSTAIASSLQTMQQDMIDGLKPLLPVSMRNQIDMLVPRQCFSLSYDLNCDKLCADFQEDIEFHFSLGWTMLVNRFLGPKNSRRALLGYSDQVQRPLPLTPANPSMPPLPQSSLTQEELMVSMVTGLASLTSRTSMGILVVGGVVWKAVGWRLIALSFGLYGLLYVYERLTWTTKAKERAFKRQFVEYASEKLQLIISYTGSNCSHQVQQELSGTFAHLCQQVDITRDNLEQEIAAMNKKVEALDSLQSRAKLLRNKAGWLDSELNMFTHQYLQPSR
Consider B1, for which the binding entry is “binds”.
